# Assay results: PubChem BioAssay AID2685 (National Center for Advancing Translational Sciences (NCATS), 2010)
# The other results are listed elsewhere or left out. Shown are side measurements of this screen, not its main read-out; they come without a call. The list favours compounds with an active or inconclusive main result. Words in brackets tell the shape of the fitted curve; partial curves, single points and poor fits give uncertain potencies.
# Experiment: qHTS Assay for Lipid Storage Modulators in Drosophila S3 Cells;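 for cell number change: cells counted by Cell Tracker Red CMTPX staining in the red channel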
# Conditions: BODIPY lipid droplet fluorescence, 18-24 h; for cell number change: measured here: cell count max response, cells fed with added oleic acid
# Method in brief: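 Drosophila S3 cells got compounds at several concentrations plus oleic acid (400 uM solution). Laser-scanning cytometry with 488 nm excitation read lipid droplets at 500-530 nm and cells at 575-640 nm. Percent activity was relative to 20 uM Triacsin C.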
# [1] = measured here: cell number channel AC50, cells fed with added oleic acid
# [2] = measured here: lipid fluorescence (Fed channel) AC50, cells fed with added oleic acid
Structure (SMILES),cell number change [%],AC50 [1],AC50 [2]
Cc1ccc(C(=O)NCCNC(=O)c2ccco2)cn1,13.1,–,–
CN1CCN(Cc2oc(CO)cc(=O)c2O)CC1,-12.5,"1.84 µM [falling, partial curve]",–
CCn1cnc2c1c(=O)n(CC(=O)Nc1ccc3c(c1)OC(F)(F)O3)c(=O)n2Cc1ccccc1,–,–,"6.51 µM [rising, single point]"
Cc1ccc(-c2csc3nc(C)n(N)c(=O)c23)o1,87.5,"0.58 µM [rising, full curve]","0.517 µM [rising, partial curve]"
O=C(Cc1c(C(=O)O)[nH]c2ccc(Cl)cc12)Nc1ccc2c(c1)OCCO2,-12.4,–,"0.0517 µM [falling, full curve, poor fit]"
O=C(NCCc1ccc(C(F)(F)F)cc1)C1CC(=O)N(c2ccc3c(c2)OCCO3)C1 (configuration not stated),18.7,"0.366 µM [rising, partial curve, poor fit]",–
Cc1ccc2cc(CN(CCCO)S(=O)(=O)c3ccccc3F)c(=O)[nH]c2c1C,3.04,–,–
COc1ccccc1CNCC(O)Cn1c2ccccc2c2ccccc21 (configuration not stated),-31.6,"29.1 µM [falling, single point]","0.103 µM [rising, full curve, poor fit]"
N#C/C(=C(/O)CN1C(=O)c2ccccc2C1=O)c1nc2ccccc2[nH]1,-1.29,–,–
CC(C)c1cc(=O)[nH]c(N2CCN(Cc3ccc4c(c3)OCO4)CC2)n1,5.47,"3.66 µM [rising, partial curve, poor fit]","1.46 µM [rising, partial curve]"
CC1=NS(=O)(=O)c2cc(Cl)ccc2N1,-23.9,–,"14.6 µM [rising, single point]"
CCOC(=O)CNc1ncc(C(F)(F)F)cc1Cl,45.2,"18.4 µM [rising, single point]",–
CC(C)(C)CC(=O)Nc1ccc(Nc2ccccc2)cc1,-17.2,–,"6.51 µM [rising, single point]"
COc1ccc(OC)c(-n2nnnc2SCC(=O)Nc2nc(C)c(C)s2)c1,20.7,–,"23.1 µM [rising, single point]"
CCOc1ccc(NC(=O)COc2ccc(C(=O)NCc3cccnc3)cc2OC)cc1,59.4,"8.2 µM [rising, partial curve, poor fit]","6.51 µM [rising, partial curve]"
CCOC(=O)C1CCN(C(=O)C2CCN(S(=O)(=O)c3ccc4ccccc4c3)CC2)CC1,-5.53,"0.112 µM [falling, full curve, poor fit]",–
